According to patent US10828372B2, “Compositions and methods for the inhibition of fibrosis” (WISCONSIN ALUMNI RESEARCH FOUNDATION, priority 2017, dated 2020):

What follows are substances tested on human plasma FN (assay: Isothermal Titration calorimetry (ITC) of peptide binding to fibronectin). Conditions: pH 7.4 PBS, 25° C.
Procedure: Isothermal Titration calorimetry (ITC): ITC experiments were performed using a VP-ITC microcalorimeter (MicroCal, LLC) with a cell volume of 2.2 mL. In a typical experiment, the cell was filled with 1.4 mL of 2 μM human plasma FN and the syringe was filled with 1 mL of 28 μM FUD or PEG-FUD peptides. The temperature was set to 25° C. The titration experiment was performed in 39 injections (1×1, 4×4, and 34×8 μL) delivered in 120 sec intervals. Prior to injection, both FN and the peptides were dialyzed in separate dialysis bags overnight into the same PBS buffer (pH 7.4) solution. Routine analysis involved discarding of the first data point and subtraction of peptide into PBS buffer control run. Data were fit using one set of sites model Lavenberg-Marquardt nonlinear regression in Origin 7.0.
The binding of 10 kDa, 20 kDa, and 40 kDa PEG-FUD to FN was studied using Isothermal Titration calorimetry (ITC). This technique was used to determine the thermodynamic parameters as well as the binding constant (Kd) of the interaction. The peptide was injected into a human plasma FN solution in PBS at pH 7.4 and 25° C. in triplicate runs. […] A Kd of 6 (±3) nM was detected for FUD:FN. […] Similar entropy change of −65 (±3) cal/mol, −74 (±7) cal/mol, −66 (±7) cal/mol, and −73 (±2) and enthalpy change of −31 (±1) kcal/mol, −34 (±2) kcal/mol, −30 (±1) kcal/mol, and −32.5 (±0.5) kcal/mol were detected for the interaction of FUD and 10 kDa, 20 kDa, and 40 kDa PEG-FUD with FN, respectively. […] This observation is contrary to the expectation of PEG attachment diminishing a drug's affinity for its binding partner and presents an unexpected but desired feature of the PEG-FUD peptide.

Q: For “20 kDa PEG-FUD: FUD N-terminally mono-PEGylated with 20 kDa linear methoxy-PEG propionaldehyde (KDQSPLAGESGETEYITEVYGNQQNPVDIDKKLPNETGFSGNMVETEDT)”, which entropy change is on record?
A: −66 (±7) cal/mol

Q: What about the ΔH of the same substance?
A: -30 kcal/mol

Q: What about the ΔS of the same substance?
A: -66 cal/mol

Q: “FUD: 49 amino acid FUD peptide, SEQ ID NO: 1, recombinantly expressed, His-tag removed; inhibitor of fibronectin fibrillogenesis (KDQSPLAGESGETEYITEVYGNQQNPVDIDKKLPNETGFSGNMVETEDT; human) [reference compound]” was tested. Which entropy change did it give?
A: −65 (±3) cal/mol

Q: And the ΔH?
A: -31 kcal/mol

Q: What about the ΔS of the same substance?
A: -65 cal/mol

Q: What does the source list for “10 kDa PEG-FUD: FUD N-terminally mono-PEGylated with 10 kDa linear methoxy-PEG propionaldehyde (KDQSPLAGESGETEYITEVYGNQQNPVDIDKKLPNETGFSGNMVETEDT)”?
A: entropy change: −74 (±7) cal/mol; ΔH: -34 kcal/mol; ΔS: -74 cal/mol

Q: For “40 kDa PEG-FUD: FUD N-terminally mono-PEGylated with 40 kDa branched methoxy-PEG propionaldehyde (KDQSPLAGESGETEYITEVYGNQQNPVDIDKKLPNETGFSGNMVETEDT)”, which entropy change is on record?
A: −73 (±2) cal/mol

Q: And the ΔH?
A: -32.5 kcal/mol

Q: What about the ΔS of the same substance?
A: -73 cal/mol
